Test results reported in the supplement of paper PMC11732987, “Enantioselective OTUD7B fragment discovery through chemoproteomics screening and high-throughput optimisation” (Communications Chemistry, 2025).
The other results are listed elsewhere or left out. The data scatter; read single values as rough.

By UniProt entry, the sequences of proteins in these tests, tags left out. Where a name states a change or a piece, a line headed by the entry shows the natural chain unless it says otherwise. Residues count along the entry.
UniProt Q9UQ49: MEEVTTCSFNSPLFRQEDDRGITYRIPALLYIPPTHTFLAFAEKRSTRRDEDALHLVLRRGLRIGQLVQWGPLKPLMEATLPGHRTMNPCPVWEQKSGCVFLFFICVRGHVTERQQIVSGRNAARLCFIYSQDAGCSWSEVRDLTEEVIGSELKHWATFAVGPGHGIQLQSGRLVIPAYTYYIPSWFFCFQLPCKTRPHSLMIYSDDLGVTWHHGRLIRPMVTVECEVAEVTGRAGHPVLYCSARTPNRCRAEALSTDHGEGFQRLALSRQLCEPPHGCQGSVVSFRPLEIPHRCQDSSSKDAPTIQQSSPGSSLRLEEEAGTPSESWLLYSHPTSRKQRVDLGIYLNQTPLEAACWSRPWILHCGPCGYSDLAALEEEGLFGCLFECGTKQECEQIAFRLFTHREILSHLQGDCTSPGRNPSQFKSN
UniProt Q9Y2X3: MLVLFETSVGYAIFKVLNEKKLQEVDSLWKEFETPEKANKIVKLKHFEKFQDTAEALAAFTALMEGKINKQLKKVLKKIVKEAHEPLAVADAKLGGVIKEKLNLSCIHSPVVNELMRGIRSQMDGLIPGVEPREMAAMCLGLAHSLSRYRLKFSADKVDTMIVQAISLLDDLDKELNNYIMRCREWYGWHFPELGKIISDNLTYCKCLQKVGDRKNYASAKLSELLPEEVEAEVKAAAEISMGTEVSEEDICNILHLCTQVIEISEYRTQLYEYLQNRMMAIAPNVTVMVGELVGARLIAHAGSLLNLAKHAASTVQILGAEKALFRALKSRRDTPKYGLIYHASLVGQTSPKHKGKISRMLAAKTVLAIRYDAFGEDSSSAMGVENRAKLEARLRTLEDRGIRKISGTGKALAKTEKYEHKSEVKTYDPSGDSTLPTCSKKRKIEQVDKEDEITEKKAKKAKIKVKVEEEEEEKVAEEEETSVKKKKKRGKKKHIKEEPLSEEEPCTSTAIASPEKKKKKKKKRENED
UniProt P30414: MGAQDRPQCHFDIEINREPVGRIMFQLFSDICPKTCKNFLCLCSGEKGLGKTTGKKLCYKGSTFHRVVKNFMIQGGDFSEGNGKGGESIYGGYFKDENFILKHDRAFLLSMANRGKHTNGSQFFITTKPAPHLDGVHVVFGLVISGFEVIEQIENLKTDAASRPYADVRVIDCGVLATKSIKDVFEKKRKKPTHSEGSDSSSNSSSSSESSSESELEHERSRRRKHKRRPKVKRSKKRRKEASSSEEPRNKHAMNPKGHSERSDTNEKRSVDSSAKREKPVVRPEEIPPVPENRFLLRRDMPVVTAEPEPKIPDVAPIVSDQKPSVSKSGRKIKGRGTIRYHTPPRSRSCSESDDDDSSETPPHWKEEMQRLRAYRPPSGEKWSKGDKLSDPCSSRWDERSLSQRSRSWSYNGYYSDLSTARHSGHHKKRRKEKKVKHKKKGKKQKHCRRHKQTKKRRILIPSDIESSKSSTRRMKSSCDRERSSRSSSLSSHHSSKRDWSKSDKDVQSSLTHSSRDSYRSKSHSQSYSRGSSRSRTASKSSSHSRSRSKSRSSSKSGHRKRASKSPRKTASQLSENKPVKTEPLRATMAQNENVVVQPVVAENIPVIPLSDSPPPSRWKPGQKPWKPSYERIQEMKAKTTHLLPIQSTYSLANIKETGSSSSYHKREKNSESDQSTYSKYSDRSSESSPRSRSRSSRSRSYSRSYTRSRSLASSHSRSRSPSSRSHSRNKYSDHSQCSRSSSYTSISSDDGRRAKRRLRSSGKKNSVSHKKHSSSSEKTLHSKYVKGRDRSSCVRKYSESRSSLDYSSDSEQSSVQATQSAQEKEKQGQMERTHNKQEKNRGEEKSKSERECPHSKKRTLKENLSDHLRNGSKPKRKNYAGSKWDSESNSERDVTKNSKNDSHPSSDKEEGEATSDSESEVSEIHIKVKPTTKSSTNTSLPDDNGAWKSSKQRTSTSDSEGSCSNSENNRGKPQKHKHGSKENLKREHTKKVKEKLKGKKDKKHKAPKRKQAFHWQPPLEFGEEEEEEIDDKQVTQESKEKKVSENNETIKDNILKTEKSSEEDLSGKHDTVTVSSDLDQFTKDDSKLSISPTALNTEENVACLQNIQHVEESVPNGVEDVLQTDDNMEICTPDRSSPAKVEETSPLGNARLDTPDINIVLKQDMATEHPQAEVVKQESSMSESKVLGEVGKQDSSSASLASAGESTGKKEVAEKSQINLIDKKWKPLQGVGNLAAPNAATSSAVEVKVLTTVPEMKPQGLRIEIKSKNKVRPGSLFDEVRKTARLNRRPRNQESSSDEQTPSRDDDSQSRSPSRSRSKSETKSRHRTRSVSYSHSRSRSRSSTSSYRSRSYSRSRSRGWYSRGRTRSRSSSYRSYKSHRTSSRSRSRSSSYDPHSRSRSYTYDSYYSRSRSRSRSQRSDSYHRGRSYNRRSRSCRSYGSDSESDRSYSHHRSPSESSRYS
UniProt Q09161: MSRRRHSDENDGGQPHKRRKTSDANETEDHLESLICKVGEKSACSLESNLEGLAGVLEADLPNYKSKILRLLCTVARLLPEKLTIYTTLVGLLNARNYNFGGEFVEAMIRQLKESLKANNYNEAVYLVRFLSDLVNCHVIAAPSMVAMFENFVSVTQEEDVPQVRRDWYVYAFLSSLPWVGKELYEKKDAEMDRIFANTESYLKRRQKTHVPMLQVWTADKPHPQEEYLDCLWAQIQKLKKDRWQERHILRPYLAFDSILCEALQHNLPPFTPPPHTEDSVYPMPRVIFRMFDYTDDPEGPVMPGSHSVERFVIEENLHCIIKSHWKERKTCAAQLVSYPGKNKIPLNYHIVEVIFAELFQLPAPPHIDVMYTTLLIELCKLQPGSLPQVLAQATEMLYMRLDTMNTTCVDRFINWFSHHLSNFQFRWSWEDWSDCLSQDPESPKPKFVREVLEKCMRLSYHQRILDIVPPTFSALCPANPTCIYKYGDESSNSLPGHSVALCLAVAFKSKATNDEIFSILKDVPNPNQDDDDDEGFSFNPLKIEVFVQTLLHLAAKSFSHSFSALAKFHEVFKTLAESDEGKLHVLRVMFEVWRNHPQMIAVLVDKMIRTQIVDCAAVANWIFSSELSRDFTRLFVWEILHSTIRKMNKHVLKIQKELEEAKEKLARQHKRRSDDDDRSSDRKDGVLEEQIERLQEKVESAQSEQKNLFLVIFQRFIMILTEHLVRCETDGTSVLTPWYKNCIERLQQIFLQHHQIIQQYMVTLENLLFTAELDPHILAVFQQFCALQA
UniProt Q15003, whole entry, looked up: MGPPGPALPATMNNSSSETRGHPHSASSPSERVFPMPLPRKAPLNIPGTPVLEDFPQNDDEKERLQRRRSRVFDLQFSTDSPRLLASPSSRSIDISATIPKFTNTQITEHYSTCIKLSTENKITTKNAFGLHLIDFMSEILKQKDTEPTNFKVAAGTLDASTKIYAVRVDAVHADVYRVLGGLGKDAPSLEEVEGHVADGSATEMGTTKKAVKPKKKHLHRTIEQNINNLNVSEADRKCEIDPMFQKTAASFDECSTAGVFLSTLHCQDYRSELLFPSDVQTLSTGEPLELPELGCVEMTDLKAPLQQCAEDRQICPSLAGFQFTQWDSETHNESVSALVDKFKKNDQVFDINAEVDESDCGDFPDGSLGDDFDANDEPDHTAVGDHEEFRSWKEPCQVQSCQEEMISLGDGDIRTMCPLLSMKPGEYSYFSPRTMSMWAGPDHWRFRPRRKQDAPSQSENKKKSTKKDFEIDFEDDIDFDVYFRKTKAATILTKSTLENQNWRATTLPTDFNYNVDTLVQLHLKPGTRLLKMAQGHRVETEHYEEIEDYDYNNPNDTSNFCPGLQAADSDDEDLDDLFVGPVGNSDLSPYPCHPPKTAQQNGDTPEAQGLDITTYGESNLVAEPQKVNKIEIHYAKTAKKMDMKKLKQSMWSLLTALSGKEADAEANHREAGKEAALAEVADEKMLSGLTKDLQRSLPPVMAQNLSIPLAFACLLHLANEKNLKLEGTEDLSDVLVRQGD
UniProt O00483: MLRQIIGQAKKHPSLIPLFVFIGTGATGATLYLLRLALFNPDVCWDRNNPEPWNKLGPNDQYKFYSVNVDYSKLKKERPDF
UniProt Q6IBW4: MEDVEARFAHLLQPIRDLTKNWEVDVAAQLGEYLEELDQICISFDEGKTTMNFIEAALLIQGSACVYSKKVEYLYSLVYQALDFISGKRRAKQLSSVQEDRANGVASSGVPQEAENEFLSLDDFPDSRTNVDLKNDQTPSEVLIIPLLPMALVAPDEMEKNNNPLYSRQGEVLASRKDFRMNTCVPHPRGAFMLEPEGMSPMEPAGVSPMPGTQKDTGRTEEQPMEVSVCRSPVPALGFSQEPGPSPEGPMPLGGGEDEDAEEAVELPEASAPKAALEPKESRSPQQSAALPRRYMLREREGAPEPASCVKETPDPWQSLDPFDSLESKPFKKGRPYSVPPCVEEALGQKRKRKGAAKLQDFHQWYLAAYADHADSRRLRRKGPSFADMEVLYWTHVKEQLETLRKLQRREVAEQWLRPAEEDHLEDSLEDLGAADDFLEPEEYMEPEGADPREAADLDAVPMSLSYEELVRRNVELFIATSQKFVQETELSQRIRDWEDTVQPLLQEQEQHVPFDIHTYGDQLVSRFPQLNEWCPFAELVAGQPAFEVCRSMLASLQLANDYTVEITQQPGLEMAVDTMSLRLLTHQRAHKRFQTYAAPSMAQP
UniProt Q5SYE7: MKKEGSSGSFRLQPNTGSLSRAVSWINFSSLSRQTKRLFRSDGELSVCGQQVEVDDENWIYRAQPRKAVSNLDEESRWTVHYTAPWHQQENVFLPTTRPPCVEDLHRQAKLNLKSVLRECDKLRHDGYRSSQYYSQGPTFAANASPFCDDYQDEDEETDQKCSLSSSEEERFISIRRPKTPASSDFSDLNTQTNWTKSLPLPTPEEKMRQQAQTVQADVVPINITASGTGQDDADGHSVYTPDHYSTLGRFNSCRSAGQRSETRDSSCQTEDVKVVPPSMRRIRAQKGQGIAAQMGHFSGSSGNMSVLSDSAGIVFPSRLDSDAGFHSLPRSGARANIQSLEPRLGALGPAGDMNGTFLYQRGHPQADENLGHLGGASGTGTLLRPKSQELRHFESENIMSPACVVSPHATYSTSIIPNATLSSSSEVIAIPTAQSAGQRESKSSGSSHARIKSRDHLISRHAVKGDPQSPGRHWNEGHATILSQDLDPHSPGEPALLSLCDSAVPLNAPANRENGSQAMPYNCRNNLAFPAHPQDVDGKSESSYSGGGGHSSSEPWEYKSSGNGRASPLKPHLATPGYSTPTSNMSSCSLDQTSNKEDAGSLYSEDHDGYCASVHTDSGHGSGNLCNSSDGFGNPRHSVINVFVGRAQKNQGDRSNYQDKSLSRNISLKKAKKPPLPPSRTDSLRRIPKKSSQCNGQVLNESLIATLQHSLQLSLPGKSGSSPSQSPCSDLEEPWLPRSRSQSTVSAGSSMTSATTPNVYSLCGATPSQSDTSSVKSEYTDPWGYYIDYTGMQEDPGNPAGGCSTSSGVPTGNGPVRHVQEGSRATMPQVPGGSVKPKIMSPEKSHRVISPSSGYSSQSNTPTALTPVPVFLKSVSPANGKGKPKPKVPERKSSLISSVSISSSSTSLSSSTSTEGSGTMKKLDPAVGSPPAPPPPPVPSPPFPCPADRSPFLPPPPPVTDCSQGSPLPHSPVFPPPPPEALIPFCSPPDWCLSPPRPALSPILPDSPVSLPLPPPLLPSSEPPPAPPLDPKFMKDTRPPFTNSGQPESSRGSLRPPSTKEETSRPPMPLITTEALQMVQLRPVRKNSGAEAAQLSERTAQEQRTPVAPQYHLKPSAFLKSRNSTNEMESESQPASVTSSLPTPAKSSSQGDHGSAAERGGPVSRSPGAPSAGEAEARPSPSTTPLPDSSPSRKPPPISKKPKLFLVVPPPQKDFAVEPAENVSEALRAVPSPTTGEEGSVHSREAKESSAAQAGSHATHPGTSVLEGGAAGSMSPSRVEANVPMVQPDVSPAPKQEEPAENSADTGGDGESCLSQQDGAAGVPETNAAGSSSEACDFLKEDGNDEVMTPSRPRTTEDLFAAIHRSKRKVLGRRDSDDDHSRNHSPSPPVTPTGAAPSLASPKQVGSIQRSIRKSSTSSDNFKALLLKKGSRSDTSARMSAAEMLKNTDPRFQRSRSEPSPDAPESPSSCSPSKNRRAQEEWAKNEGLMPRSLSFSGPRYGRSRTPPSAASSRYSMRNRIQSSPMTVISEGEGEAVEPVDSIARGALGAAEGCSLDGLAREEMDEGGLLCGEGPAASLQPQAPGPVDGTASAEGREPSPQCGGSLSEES
UniProt Q96IV0, 2-33: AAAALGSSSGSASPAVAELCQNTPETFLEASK

compound: ClCC(=O)N[C@@H]1CCCc2ccccc12; experiment: log2 mean competition ratio of IA-DTB cysteine labelling (DMSO/compound) (log2 ratio); higher = stronger cysteine engagement by compound; conditions: 50 µM; treatment time: 4 h; cell line lysate: HEK293T
Method: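 IA-DTB competitive cysteine chemoproteomics in HEK293T RIPA lysate. Lysates were treated with compound 29 or 30 at 50 or 200 µM for 4 h, then IA-DTB (500 µM, 1 h), trypsin-digested, NeutrAvidin-enriched and analysed by diaPASEF. Competition ratio = intensity DMSO / intensity compound (n=4 treated, n=64 DMSO); binding: mean log2 CR ≥ 1 and p ≤ 0.05 plus QC filters. Target is the cysteine site.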

| Target | log2 mean competition ratio |
| --- | --- |
| NCKAP1 C556 (UniProt Q9Y2A7) | -0.247 |
| NEU3 C415 (UniProt Q9UQ49) | -0.247 |
| NOP58 C439 (UniProt Q9Y2X3) | -0.146 |
| NKTR C964 (UniProt P30414) | -0.314 |
| NEURL4 C1324 (UniProt Q96JN8) | -0.0319 |
| NCBP1 C36 (UniProt Q09161) | -0.32 |
| NDUFA7 C55 | 0.362 |
| NCAPH C239 (UniProt Q15003) | -0.117 |
| NF1 C2371 (UniProt P21359) | 0.104 |
| NDUFA4 C44 (UniProt O00483) | -0.0894 |
| NDUFV1 C125 | -0.0322 |
| NKX2-5 C114 | -0.163 |
| NCAPH2 C309 (UniProt Q6IBW4) | -0.191 |
| NHSL1 C162 (UniProt Q5SYE7) | -0.0533 |
| NNT C308 (UniProt Q13423) | -0.00744 |
| NES C157 (UniProt P48681) | 0.664 |
| NCAPG2 C401 (UniProt Q86XI2) | 0.288 |
| NBEA C315 (UniProt Q8NFP9) | 0.19 |
| NGLY1 C21 (UniProt Q96IV0) | -0.647 |
| NIN C647 (UniProt Q8N4C6) | -0.335 |

same assay, conditions: 200 µM; treatment time: 4 h; cell line lysate: HEK293T

| Target | log2 mean competition ratio |
| --- | --- |
| NCKAP1 C556 (UniProt Q9Y2A7) | -0.53 |
| NEU3 C415 (UniProt Q9UQ49) | 0.151 |
| NOP58 C439 (UniProt Q9Y2X3) | -0.11 |
| NKTR C964 (UniProt P30414) | 0.579 |
| NEURL4 C1324 (UniProt Q96JN8) | -0.435 |
| NCBP1 C36 (UniProt Q09161) | 0.258 |
| NDUFA7 C55 | 0.0514 |
| NCAPH C239 (UniProt Q15003) | -9.36e-05 |
| NF1 C2371 (UniProt P21359) | 0.19 |
| NDUFA4 C44 (UniProt O00483) | -0.27 |
| NDUFV1 C125 | 0.0577 |
| NKX2-5 C114 | 0.0303 |
| NCAPH2 C309 (UniProt Q6IBW4) | 0.153 |
| NHSL1 C162 (UniProt Q5SYE7) | 0.0721 |
| NNT C308 (UniProt Q13423) | -0.254 |
| NES C157 (UniProt P48681) | 0.159 |
| NCAPG2 C401 (UniProt Q86XI2) | 0.13 |
| NBEA C315 (UniProt Q8NFP9) | -0.478 |
| NGLY1 C21 (UniProt Q96IV0) | -0.165 |
| NIN C647 (UniProt Q8N4C6) | -0.109 |
